PubChem BioAssay AID1159578, Peter MacCallum Cancer Centre – 2015

Purpose: 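siRNA pools altering how lymphatic endothelial cells close a scratch wound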 (primary screen)
Cell system: human lymphatic endothelial cells
Reagents: siRNA pool against human genes, 40 nM
Time to read-out: 48 h after transfection
Measurement: 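High-content imaging of dye-stained cells in a scratch assay measures filled wound area and nuclei per well; duplicate means given as ratio to mock and robust z-score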
Direction: migration robust z-score: higher = faster migration into the scratch; nuclei per well: higher = more cells in the well
Active means: 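Migration changed when robust z exceeds 2 or falls below -2 and mean nuclei number is at least 3300; otherwise not called changed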
Meaning of the calls: active = migration changed; inactive = no migration change, or too few cells
This is a random part of about 18,000 reagents. About 1,030 of them (5.7%) were called active. 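Inactive calls also include pools with fewer than 3300 nuclei, whose migration was not assessed.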 Raw values are not corrected between plates. Entries without a mark were called inactive. Not all columns of the deposit are shown. Reagent sequences are not shown.

HEMGN gave migration robust z-score -2.09 (active); migration class with cell-count check migration z below -2; enough cells; nuclei per well, duplicate mean 3756. Against OR4K13, the entry reads migration robust z-score 0.06; migration class with cell-count check migration z between -2 and 2; enough cells; nuclei per well, duplicate mean 5800. ADGRL1 gave migration robust z-score -0.29; migration class with cell-count check migration z between -2 and 2; enough cells; nuclei per well, duplicate mean 5724. Against APOC2 the deposit lists migration robust z-score 0.72; migration class with cell-count check migration z between -2 and 2; enough cells; nuclei per well, duplicate mean 4718. Against DUSP7 the deposit lists migration robust z-score 1.12; migration class with cell-count check migration z between -2 and 2; enough cells; nuclei per well, duplicate mean 5436. After knock-down of ZNF140 the results were migration robust z-score 2.12 (active); migration class with cell-count check migration z above 2; enough cells; nuclei per well, duplicate mean 6282.

HIVEP3 gave migration robust z-score -0.08; migration class with cell-count check migration z between -2 and 2; enough cells; nuclei per well, duplicate mean 5676. STARD5 scored migration robust z-score 0.99; migration class with cell-count check migration z between -2 and 2; enough cells; nuclei per well, duplicate mean 5977. GET4 gave migration robust z-score 0.3; migration class with cell-count check migration z between -2 and 2; enough cells; nuclei per well, duplicate mean 6259. Silencing of POPDC2 came out at: migration robust z-score -0.3; migration class with cell-count check migration z between -2 and 2; enough cells; nuclei per well, duplicate mean 4985. KDM4C showed migration robust z-score -0.3; migration class with cell-count check migration z between -2 and 2; enough cells; nuclei per well, duplicate mean 5615. With knock-down of PRKDC, the screen gave migration robust z-score 1.97; migration class with cell-count check migration z between -2 and 2; enough cells; nuclei per well, duplicate mean 4488.

2 entries from above, ordered by “nuclei per well, duplicate mean”, descending.
OR4K13 → migration robust z-score = 0.06; migration class with cell-count check = migration z between -2 and 2; enough cells; nuclei per well, duplicate mean = 5800
ADGRL1 → migration robust z-score = -0.29; migration class with cell-count check = migration z between -2 and 2; enough cells; nuclei per well, duplicate mean = 5724
